Laboratory results published in paper doi:10.1101/2023.10.03.560778.
Results are given in words; binding and its absence hold for the method and conditions named. Binding seen in cells or lysates may run through a third protein. Here binding means that the protein was enriched with, or labelled near, the bait; the list need not be complete. Tags and fused reporters may be left off the sequences shown.

By UniProt entry, the sequences of proteins in these tests, tags left out.
UniProt O32164: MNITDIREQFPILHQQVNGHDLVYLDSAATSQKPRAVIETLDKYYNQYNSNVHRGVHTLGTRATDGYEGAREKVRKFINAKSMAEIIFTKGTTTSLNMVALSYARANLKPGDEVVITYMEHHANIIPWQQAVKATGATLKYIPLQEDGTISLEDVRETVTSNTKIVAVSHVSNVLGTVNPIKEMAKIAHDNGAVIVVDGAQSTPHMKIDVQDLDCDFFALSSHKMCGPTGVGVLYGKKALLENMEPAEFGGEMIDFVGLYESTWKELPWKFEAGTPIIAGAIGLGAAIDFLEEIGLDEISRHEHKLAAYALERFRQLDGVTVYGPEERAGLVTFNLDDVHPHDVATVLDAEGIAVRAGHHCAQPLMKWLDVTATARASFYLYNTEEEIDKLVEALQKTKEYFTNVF

B1: Fur (ferric uptake regulator), Bacillus subtilis (protein, UniProt P54574 1-149)
chain: MENRIDRIKKQLHSSSYKLTPQREATVRVLLENEEDHLSAEDVYLLVKEKSPEIGLATVYRTLELLTELKVVDKINFGDGVSRYDLRKEGAAHFHHHLVCMECGAVDEIEEDLLEDVEEIIERDWKFKIKDHRLTFHGICHRCNGKETE
B2: NarH (Fe-requiring protein), Bacillus subtilis (protein, UniProt P42176 1-487)
chain: MKIKAQIGMVMNLDKCIGCHTCSVTCKNTWTNRSGAEYMYFNNVETKPGIGYPKQWEDQDKYKGGWTLKKGKLELKSGSKTNRLAGLFYNPNQPSIDDYYEPWNYDYETLTNSPQKKHQPVARPKSSLTGDFMNIEWGPNWEDDLAGGHITGLEDPNVQKMEESIKTEFDDVFMMYLPRICEHCINPACVSSCPSGAMYKREEDGIVLVDQNACRSWRYCVSSCPYKKVYFNWQTNKAEKCTLCFPRLEAGLPTICSETCVGRIRYLGVMLYDADKVEEAASVENEKDLYHSQLDVFLDPNDPEVAKLAKEQGIPAEWIEAAQQSPIYKMIIDWKIALPLHPEYRTLPMVWYIPPLSPIMNLFEGKGSRQTAEDIFPAIDQMRIPIDYLAQLLTAGDTDHIRSTLKKMSVMRQYMRAVQTNKSIDPELISSVGLTEQQIEDMYRLLAIAKYDDRFVIPSSHREEVSDLYAEQGSCGLSFSGGPGSCF
B3: QcrA (Fe-requiring protein), Bacillus subtilis (protein, UniProt P46911 1-167)
chain: MGGKHDISRRQFLNYTLTGVGGFMAASMLMPMVRFALDPVLKSTGKQDMVQVVSVDELTKEPQRFDFKINQVDAWYESEESRSAWVFKNGDEIVALSPICKHLGCTVNWNSDPKNPNKFFCPCHYGLYEKDGTNVPGTPPLAPLDHYEQEVKDGFLYLGKAKPKGEG
B4: CitB (Fe-requiring protein), Bacillus subtilis (protein, UniProt P09339 1-909)
chain: MANEQKTAAKDVFQARKTFTTNGKTYHYYSLKALEDSGIGKVSKLPYSIKVLLESVLRQVDGFVIKKEHVENLAKWGTAELKDIDVPFKPSRVILQDFTGVPAVVDLASLRKAMAAVGGDPDKINPEIPVDLVIDHSVQVDKAGTEDALAVNMDLEFERNAERYKFLSWAKKAFNNYQAVPPATGIVHQVNLEFLASVVHAIEEDGELVTYPDTLVGTDSHTTMINGIGVLGWGVGGIEAEAGMLGQPSYFPVPEVIGAKLVGKLPNGTTATDLALKVTQVLREKGVVGKFVEFFGPGIAELPLADRATIANMAPEYGATCGFFPVDEEALNYLRLTGRDPEHIDVVEAYCRSNGLFYTPDAEDPQFTDVVEIDLSQIEANLSGPKRPQDLIPLSAMQETFKKQLVSPAGNQGFGLNAEEENKEIKFKLLNGEETVMKTGAIAIAAITSCTNTSNPYVLIGAGLVAKKAVELGLKVPNYVKTSLAPGSKVVTGYLVNSGLLPYMKELGFNLVGYGCTTCIGNSGPLSPEIEEAVAKNDLLITSVLSGNRNFEGRIHPLVKGNYLASPPLVVAYALAGTVNINLKTDPIGVGKDGQNVYFNDIWPSMDEINALVKQTVTPELFRKEYETVFDDNKRWNEIETTDEALYKWDNDSTYIQNPPFFEEMSVEPGKVEPLKGLRVVGKFGDSVTTDHISPAGAIGKDTPAGKYLQEKGVSPRDFNSYGSRRGNHEVMMRGTFANIRIKNQIAPGTEGGFTTYWPTGEVTSIYDACMKYKEDKTGLVVLAGKDYGMGSSRDWAAKGTNLLGIRTVIAESFERIHRSNLVFMGVLPLQFKQGENADTLGLTGKEVIEVDVDETVRPRDLVTVRAINEDGNVTTFEAVVRFDSEVEIDYYRHGGILQMVLREKMKQS
B5: SufC (FeS cluster synthesis machinery SufCDSUB), Bacillus subtilis (protein, UniProt P80866 1-261)
chain: MAASTLTIKDLHVEIEGKEILKGVNLEIKGGEFHAVMGPNGTGKSTLSAAIMGHPKYEVTKGSITLDGKDVLEMEVDERAQAGLFLAMQYPSEISGVTNADFLRSAINARREEGDEISLMKFIRKMDENMEFLEMDPEMAQRYLNEGFSGGEKKRNEILQLMMIEPKIAILDEIDSGLDIDALKVVSKGINKMRSENFGCLMITHYQRLLNYITPDVVHVMMQGRVVKSGGAELAQRLEAEGYDWIKQELGIEDETVGQEA
B6: SufD (FeS cluster synthesis machinery SufCDSUB), Bacillus subtilis (protein, UniProt O32165 1-437)
chain: MTLGTKLSVDQEYLKSFSEKHQEPAWLKNLRLQALEQAEDLPMPKPDKTKITNWNFTNFAKHTVDNEPLSSLEDLTDEVKALIDIENEDKTLYVQRDQTPAHLSLSQELKDKGVIFTDILTAAREHSDLVEKYFMKDGVKVDEHKLTALHAALVNGGAFLYVPKNVQVETPVQAVYVHESNDTALFNHVLIVAEDHSSVTYVENYISTVNPKDAVFNIISEVITGDNASVTYGAVDNLSSGVTTYVNRRGAARGRDSKIEWALGLMNDGDTISENTTNLYGDGTYGDTKTVVVGRGEQTENFTTQIIHFGKASEGYILKHGVMKDSASSIFNGIGKIEHGASKANAEQESRVLMLSEKARGDANPILLIDEDDVTAGHAASVGRVDPIQLYYLMSRGIPKEEAERLVIYGFLAPVVNELPIEGVKKQLVSVIERKVK
B7: SufU (FeS cluster synthesis machinery SufCDSUB), Bacillus subtilis (protein, UniProt O32163 1-147)
chain: MSFNANLDTLYRQVIMDHYKNPRNKGVLNDSIVVDMNNPTCGDRIRLTMKLDGDIVEDAKFEGEGCSISMASASMMTQAIKGKDIETALSMSKIFSDMMQGKEYDDSIDLGDIEALQGVSKFPARIKCATLSWKALEKGVAKEEGGN
B8: SufB (FeS cluster synthesis machinery SufCDSUB), Bacillus subtilis (protein, UniProt O32162 1-465)
chain: MAKKMPDIGEYKYGFHDKDVSIFRSERGLTKEIVEEISRMKEEPQWMLDFRLKSLEHFYNMPMPQWGGDLNSLNFDEITYYVKPSERSERSWDEVPEEIKQTFDKLGIPEAEQKYLAGVSAQYESEVVYHNMKEDLEAQGIVFKDTDSALKENEDIFREHWAKVIPPTDNKFAALNSAVWSGGSFIYVPKGVKVETPLQAYFRINSENMGQFERTLIIVDEEASVHYVEGCTAPVYTTNSLHSAVVEIIVKKGGYCRYTTIQNWANNVYNLVTKRTVCEENATMEWIDGNIGSKLTMKYPACILKGEGARGMTLSIALAGKGQHQDAGAKMIHLAPNTSSTIVSKSISKQGGKVTYRGIVHFGRKAEGARSNIECDTLIMDNKSTSDTIPYNEILNDNISLEHEAKVSKVSEEQLFYLMSRGISEEEATEMIVMGFIEPFTKELPMEYAVEMNRLIKFEMEGSIG
B9: SufA (FeS cluster assembly factor), Bacillus subtilis (protein, UniProt O32113 1-120)
chain: MSNPVTITEAAALHIKDMMKEHEEENAFLRVGVKGGGCSGLSYGMGFEHEKSESDSVFDQHGITVLVDKESLDIMNGTVIDYKQSMLGGGFTIDNPNAIASCGCGSSFRTATNAGKPEEC
B10: GlcF (Fe-requiring protein), Bacillus subtilis (protein, UniProt P94534 1-444)
chain: MTTEKEMKQIQNEFKERMDEGELLNCMRCGFCLPSCPTYIESGFQETHSPRGRIALMKAVADGMIEPDEDVERSLSLCLGCRACEPVCPSGVKYGQLLEEARDIIHQNKKHSLGERVMRKTAFHELFPHQNRMRSAVSLIGLYQRSGLQTAVRKSGMLRVLPEHLRTMEAVLPDVPKSKDMKHRPRFLPSIGPMKKRVAFFSGCLMDTMFLPTNNATLKLLQLAGCDIVIPPEQACCGALHGHSGEKNTGKELAKQNIAAFEALDVDAVITNAGGCGAFLTEYDHLLKDDPEWSERAAAFVQKLKDFSSVLVELDFHQMDLALETPQVVTYQDSCHLRNVMHTSLEPRQLLKSIKGAEFKEMEKADSCCGSAGIYNIVEVEMSMKILDSKMAAVKATEAILIVTANPGCLLQMKLGIEREGLSGKVRAVHLADLLLEAAGHKTS

Target: T1, YFP-YlaN (Bacillus subtilis YlaN with N-terminally fused YFP) (B. subtilis) (UniProt O07638)
T1 sequence: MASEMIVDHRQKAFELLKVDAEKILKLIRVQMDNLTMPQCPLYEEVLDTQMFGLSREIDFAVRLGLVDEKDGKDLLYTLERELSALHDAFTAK
Assay: affinity purification with mass spectrometry

binding, binds:
SufT (FeS cluster assembly factor), Bacillus subtilis (B. subtilis (endogenous in BD8592))
SufS (FeS cluster synthesis machinery SufCDSUB), Bacillus subtilis (from UniProt O32164 1-406)
B1
B2
B3
B4
B5
B6
B7
B8
B9
B10
